# Screening data, single-dose tests

The chains behind the UniProt entries cited, without tags or fusion partners. Residues count along the entry.
UniProt P9WNZ1, whole entry: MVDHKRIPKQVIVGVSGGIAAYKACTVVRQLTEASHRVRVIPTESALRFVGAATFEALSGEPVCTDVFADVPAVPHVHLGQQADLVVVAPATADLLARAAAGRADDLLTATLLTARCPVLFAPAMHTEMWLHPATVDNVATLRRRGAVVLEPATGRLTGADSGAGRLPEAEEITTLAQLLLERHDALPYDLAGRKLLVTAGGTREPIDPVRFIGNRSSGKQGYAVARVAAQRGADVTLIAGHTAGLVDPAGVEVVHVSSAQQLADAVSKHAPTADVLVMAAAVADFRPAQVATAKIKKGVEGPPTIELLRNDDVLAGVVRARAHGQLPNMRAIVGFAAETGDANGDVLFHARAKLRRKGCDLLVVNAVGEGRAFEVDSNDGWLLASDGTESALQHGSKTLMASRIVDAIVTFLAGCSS
UniProt P9WFT3, whole entry: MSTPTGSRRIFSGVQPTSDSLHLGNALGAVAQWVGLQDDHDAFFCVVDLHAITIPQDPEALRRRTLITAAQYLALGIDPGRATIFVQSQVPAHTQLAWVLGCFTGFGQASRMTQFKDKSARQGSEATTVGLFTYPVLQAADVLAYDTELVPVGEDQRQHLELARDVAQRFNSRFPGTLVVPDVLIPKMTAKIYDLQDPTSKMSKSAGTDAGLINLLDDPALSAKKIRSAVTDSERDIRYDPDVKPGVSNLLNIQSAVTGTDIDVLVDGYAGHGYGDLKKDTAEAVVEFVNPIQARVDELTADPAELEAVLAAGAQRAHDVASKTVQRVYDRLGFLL
UniProt A4I591, 1-473: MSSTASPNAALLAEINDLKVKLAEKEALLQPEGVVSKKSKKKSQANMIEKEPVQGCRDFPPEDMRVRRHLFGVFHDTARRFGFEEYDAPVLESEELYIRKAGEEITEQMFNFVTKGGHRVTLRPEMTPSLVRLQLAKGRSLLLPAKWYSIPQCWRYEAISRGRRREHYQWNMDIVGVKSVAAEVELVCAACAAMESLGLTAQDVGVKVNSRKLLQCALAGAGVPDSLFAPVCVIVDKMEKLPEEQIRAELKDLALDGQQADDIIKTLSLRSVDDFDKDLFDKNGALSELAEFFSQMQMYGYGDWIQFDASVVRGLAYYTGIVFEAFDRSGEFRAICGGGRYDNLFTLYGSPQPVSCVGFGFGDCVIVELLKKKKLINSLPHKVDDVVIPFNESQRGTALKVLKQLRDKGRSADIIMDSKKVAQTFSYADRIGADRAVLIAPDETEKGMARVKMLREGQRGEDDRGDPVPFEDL

Measurements from “University of Dundee, Small-Polar-MMV Screening Library” (2021), ChEMBL document CHEMBL3988442.

A: 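Coenzyme A biosynthesis protein CoaBC, Mycobacterium tuberculosis (UniProt P9WNZ1). Enzyme assay of CoaBC with a phosphate dye (Biomol Green) read at 650 nm. Concentration: 30 µM. Higher reads as stronger inhibition, judged from the few compounds that gave an IC50. Most strong results did not repeat in a second test. Of about 67,000 compounds tested this way, about 40 (0.06%) reached 50% or more in at least one test.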
B: 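Assay of Toxoplasma gondii numbers, read through their beta-galactosidase reporter with a colour substrate. Compounds at 10 µM. Higher reads as fewer parasites (inferred from which compounds were picked for retests). Size under these conditions: about 67,000 compounds, about 260 of them at 50% or above in at least one test.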
C: 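Cell assay of Leishmania donovani living inside macrophages; the read-out is not stated. Tested at 30 µM. Direction is inferred from retests: higher values go with stronger inhibition. Of about 69,000 compounds tested this way, about 1,000 (1.5%) reached 50% or more in at least one test.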
D: 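Tryptophan-tRNA ligase, Mycobacterium tuberculosis (UniProt P9WFT3). Enzyme assay of tryptophanyl-tRNA synthetase; the read-out is not stated. Tested at 10 µM. Direction is not recorded; retested compounds ran higher, which suggests that high means inhibition. About 65,000 compounds were tested under these conditions; 0.098% (about 64) showed 50% or more at least once.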
E: 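Enzyme assay of histidyl-tRNA synthetase; the read-out is not stated. Target: Histidine-tRNA ligase, Leishmania infantum (UniProt A4I591). Compounds at 30 µM. Higher reads as stronger inhibition (inferred: compounds with an IC50 in retests scored well above the rest). The assay is labelled LdHisRS but filed under L. infantum. About 69,000 compounds were tested under these conditions; 0.6% (about 410) showed 50% or more at least once.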

Results are given as percent effect.
The record does not define 0% and 100%; most values in the screen are far below 50% and negative numbers occur (in some assays of this library far below -100).
Compounds were drawn at random from those tested, without regard to their results.

CC(O)CN1CCN(C(=O)c2cccn2Cc2ccncc2)CC1 (configuration not stated) read A: -2.571%; C: 43.78%; D: 0.07868%; E: -7.865%.
Cc1cc(CN2CCc3nc(C)n(C)c(=O)c3CC2)[nH]n1 read A: 8.147%; B: -5.934%; C: 0.453%; D: -0.6938%; E: 14.71%.
CCN1CCOCC12CCN(C(=O)c1ccsc1)CC2.O=C(O)C(F)(F)F read B: -2.181%; C: 17.04%.
[H][C@@]12C[C@@H](O)C[C@]1([H])CN(Cc1ccc(C(C)(C)C)cc1OCC(N)=O)C2 read B: -12.48%; C: 13.78%.
CSCC(=O)N[C@H]1CN(CC2CCOCC2)C[C@@H]1c1ccccc1 read A: -6.188%; B: -5.393%; C: 20.09%; D: 1.729%; E: 12%.
O=C(c1cccc(CNCC2CNc3ccnn3C2)c1)N1CCCC1 (configuration not stated) read A: 10.7%; B: 1.519%; C: -32.98%; D: 0.6823%; E: 24.32%.
CC(C)CN1CCC(N2CCC(C(=O)N(C)C)CC2)CC1 read A: 1.818%; E: 7.692%.
O=S(=O)(c1cccnc1)N1C[C@@H]2COC[C@]2(CN2CCOCC2)C1 read A: -1.903%; D: -7.118%; E: 8.772%.
O=C(NCCN1CCNCC1)c1nc2ccccc2c(=O)[nH]1 read A: 2.557%; B: -4.423%; C: -4.701%; D: -1.608%; E: 7.767%.
CN(C)c1ccc(C(=O)N2CCN(Cc3cscn3)CC2)cn1 read A: -6.971%; B: 24.14%; C: 26.49%; D: 0.05679%; E: 15.38%.
O=c1c2cccnc2cnn1CC(O)c1ccc(Br)cc1 (configuration not stated) read A: 2.851%; B: -2.291%; C: -31.84%; D: 4.658%; E: -17.65%.
COc1cc(F)ccc1-c1nc2c([nH]1)c(C1CC1)nn2C read A: 4.119%; B: 6.626%; C: 12.16%; D: -5.897%; E: 4.225%.
CCOCC1CN(C(=O)c2cnoc2C)Cc2cnn(C)c21 (configuration not stated) read A: -5.055%; D: -1.33%; E: -29.17%.
CCN(CC)c1ccc(NC(=O)NCC2(C(N)=O)CCOCC2)cn1 read A: 3.509%; B: 4.966%; C: 1.223%; D: -1.845%; E: 11.67%.
CNC(=O)c1nc(Cn2ncc3ccccc3c2=O)no1 read B: -0.9709%; C: -1.006%; D: -2.119%; E: -1.408%.
O=C(c1cccs1)N1CCC2(CC1)CCN(S(=O)(=O)C1CC1)CC2 read A: 2.104%; B: -41.56%; C: 26.95%; E: 19.8%.
Cc1nc2c(cc1C(=O)O)CCN(Cc1ccsc1)CC2.O=C(O)C(F)(F)F.O=C(O)C(F)(F)F read B: 16.43%; C: 0.4792%.
[H][C@@]12CN(Cc3nccn3C)C[C@]1([H])OCCN2c1ncccn1 read B: 10.32%; C: 50.19%.
Cc1nc(COC[C@@H]2CCC[C@@]23CNCCO3)cs1.Cl.Cl read B: 6.576%; C: 6.878%.
Cc1noc(C)c1CN1CCN(Cc2cccnc2)c2ncccc2C1 read A: 4.079%; D: -1.44%; E: 23%.
N#Cc1ccc(CN(CC(N)=O)Cc2cccc(F)c2)cc1 read A: -2.42%; B: 5.278%; C: -31.41%; D: -1.125%; E: 2.073%.
O=C(CCN1CCCCO1)N1CC[C@H](O)[C@@H](O)C1 read A: 0.86%; B: -11.96%; C: 19.56%; D: -3.038%; E: 7.752%.